PubChem BioAssay AID504834 (National Center for Advancing Translational Sciences (NCATS), 2011)
The campaign covered roughly 320,000 compounds. About 22,000 (6.9%) were called active. Inconclusive results, whose numbers are uncertain, are shown with a selection of clear calls. Calls follow the shape of the dose curve; as a rule, active = well fitted inhibition curve with a large enough effect; inconclusive = small, poorly fitted or top-dose-only effect, or another doubt; inactive = no such curve, though single readings can be large or run the other way. Potencies beside an inconclusive call are fits to weak or partial responses and may not hold up.

Test: Primary qHTS for delayed death inhibitors of the malarial parasite plastid, 96 hour incubation
Details: P. falciparum luciferase reporter growth; series mostly up to 28.7 µM
Procedure, shortened: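 Luminescence readout: decreased luciferase signal marks inhibited growth of reporter-expressing P. falciparum in infected red cells (2% hematocrit, 0.05% parasitemia final), exposed to compound two generations (96 h, 37 C, 5% CO2).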
Potency is read from the fitted curve at half-maximal effect.

Row | SMILES | Potency
1 | O=S(=O)(NC1CCCC1)OCC(Cl)(Cl)Cl | inactive
2 | N#C/C(=C\c1ccc(Oc2ccc(C(F)(F)F)cc2[N+](=O)[O-])cc1)c1nc2ccccc2[nH]1 | inactive
3 | CCCCn1c(N)c(N(CCOC)C(=O)c2cc(-c3ccccc3Cl)nc3ccccc23)c(=O)[nH]c1=O | inconclusive: 14.7 µM [inhibitor, single point]
4 | Cc1cc(OCC(=O)N(C)C)c2c(-c3ccccc3)cc(=O)oc2c1 | active: 10.4 µM
5 | Cc1cc(NC(=O)CN(C)CCOc2ccccc2)ccc1Br | inactive
6 | CC(Cc1ccccc1)N/C=C1\CC(=O)NC1=O (stereo not given) | inconclusive: 2.08 µM [inhibitor, partial curve, poor fit]
7 | COc1ccc(/C=C/C(=O)Nn2cnnc2)cc1 | inconclusive: 6.57 µM [inhibitor, partial curve, poor fit]
8 | O=C(NCCN1CCCCC1)Nc1ccccc1Cl | inactive
9 | CCCN(C(=O)c1cccs1)c1nnc(-c2ccncc2)s1 | inconclusive: 10.4 µM [inhibitor, single point]
10 | O=[N+]([O-])c1ccc(-n2nncc2-c2ccccc2)cc1 | inconclusive: 20.8 µM [inhibitor, single point]
11 | Cc1cc(Cl)ccc1OCCCC(=O)NNC(=O)c1ccncc1 | inconclusive: 18.5 µM [inhibitor, single point]
12 | COc1cccc(CNC(=O)Cc2csc(Nc3nc(=S)[nH]c4ccccc34)n2)c1 | inconclusive: 2.94 µM [inhibitor, full curve, poor fit]
13 | C=CCn1c(O)c(C(CC)=NCC2CCCO2)c(=O)[nH]c1=O (stereo not given) | inconclusive: 1.85 µM [inhibitor, partial curve, poor fit]
14 | CN1CCN(S(=O)(=O)c2ccc(N(C)CC(=O)Nc3ccc(F)cc3)nc2)CC1 | inconclusive: 18.5 µM [inhibitor, single point]
15 | COc1ccccc1NC(=O)N(Cc1ccco1)Cc1cc2cc(C)cc(C)c2[nH]c1=O | inconclusive: 18.5 µM [inhibitor, single point]
16 | COC(=O)C1=C(c2ccc(F)cc2OCc2ccccc2)C[C@@H]2CC[C@H]1N2C(=O)NCc1ccc(C)cc1 | inconclusive: 0.522 µM [inhibitor, full curve, poor fit]
17 | CCOC(=O)c1c(C)c(/C=N/Nc2ccccc2)n(C)c1C | inconclusive: 18.5 µM [inhibitor, single point]
18 | COc1ccccc1NS(=O)(=O)c1cccc(NC(=O)Nc2ccccc2)c1 | inactive
19 | C/C(CC(=O)Nc1ccc2c(c1)OCCO2)=N\NC(=O)COc1ccccc1 | inconclusive: 16.5 µM [inhibitor, partial curve, poor fit]
20 | COc1cc(/C=N/N2C(=O)CSC2=S)ccc1O | inactive
21 | NCCCN1CCN(c2ccccc2)CC1 | inconclusive: 10.4 µM [inhibitor, partial curve, poor fit]
22 | O=C(Cn1nnc(-c2ccccc2)n1)N1CCN(S(=O)(=O)c2ccc(Cl)cc2)CC1 | inconclusive: 18.5 µM [inhibitor, single point]
23 | CCOc1cccc(/C(O)=C2/C(=O)C(=O)N(Cc3cccnc3)C2c2ccco2)c1 (stereo not given) | inconclusive: 4.15 µM [inhibitor, single point]
24 | Cc1nc2scc(C)n2c(=O)c1S(=O)(=O)NCc1ccccc1Cl | inconclusive: 11.7 µM [inhibitor, single point]

Row | SMILES | Potency
25 | O=C1C2C3c4ccccc4C(c4ccccc43)C2C(=O)N1Cc1ccccn1 (stereo not given) | inconclusive: 13.1 µM [inhibitor, single point]
26 | COc1ccc(CNC(=S)Nc2ccc3nc(N4CCN(C)CC4)cc(C)c3c2)cc1 | inconclusive: 9.28 µM [inhibitor, partial curve, poor fit]
27 | Cc1ccc(N=Cc2cccc(O)c2O)c(C)c1 | active: 11.7 µM
28 | O=C(NC1CCCCCC1)C1c2ccccc2C(=O)N1Cc1cccs1 (stereo not given) | inactive
29 | O=C1CSC(=Nc2cccc(Cl)c2Cl)N1Cc1cccnc1 | inconclusive: 14.7 µM [inhibitor, single point]
30 | Cn1cncc1C#Cc1c(C=O)[nH]c2ccccc12 | active: 5.22 µM
31 | O=C(CNC(=O)c1sc2ccccc2c1Cl)Nc1ccccc1F | inactive
32 | Cc1cc(C)[n+](C2C3CC4CC(C3)CC2C4)o1 (stereo not given) | active: 1.85 µM
33 | COCc1cc(Sc2cccc(Cl)c2Cl)nc(-c2ccccc2)n1 | active: 11.7 µM
34 | COc1ccc(CNC(=O)c2cccc(N3CCCC3=O)c2)cc1 | inconclusive: 13.1 µM [inhibitor, partial curve, poor fit]
35 | Cc1ccc(NC(=O)c2cc(C)nn2-c2ccccc2)cc1 | active: 13.1 µM
36 | Cc1ccc(N(CC(=O)N2CCOCC2)S(C)(=O)=O)cc1Cl | inconclusive: 18.5 µM [inhibitor, single point]
37 | Cn1c(SCCOc2ccccc2Cl)nnc1-c1cccs1 | inconclusive: 10.4 µM [inhibitor, partial curve, poor fit]
38 | Cc1[nH]c(=O)c(C(=O)/C=C/c2ccccc2)c2c1CCCC2 | inconclusive: 2.62 µM [inhibitor, full curve]
39 | O=C(NC(=S)N(Cc1ccccc1)Cc1ccccc1)C1CCCCC1 | inconclusive: 2.08 µM [inhibitor, partial curve, poor fit]
40 | CCN(CC)c1ccc(N=Cc2cc(Br)ccc2O)cc1 | inactive
41 | COc1ccc(NC(=O)c2c(NC(=O)CNCc3ccco3)sc3c2CCC3)cc1 | inconclusive: 16.5 µM [inhibitor, single point]
42 | CCN1CCc2nc3ccccc3c(C(=O)Nc3ccc(F)cc3)c2C1 | inconclusive: 0.37 µM [inhibitor, full curve]
43 | COc1ccc(S(=O)(=O)N2CCC(C(=O)NC3CC3)CC2)cc1C | active: 3.29 µM
44 | O=C(Cc1ccc(Cl)cc1)c1c[nH]c(C(=O)NCCCn2ccnc2)c1 | inconclusive: 3.29 µM [inhibitor, partial curve, poor fit]
45 | CCOc1ccccc1NC(=O)CSc1nnc(-c2cccnc2)o1 | inactive
46 | COC(=O)CN1C(=O)C(C)(C)Oc2ccc(C(=O)Nc3cccc(OC)c3)cc21 | inactive
47 | Cc1ccccc1NC(=S)N(CCN1CCCCC1)Cc1ccco1 | inconclusive: 11.7 µM [inhibitor, partial curve]
48 | CCN(CC(=O)Nc1cc(C)c(Cl)cc1OC)CC(=O)NC1CCS(=O)(=O)C1 (stereo not given) | inconclusive: 2.94 µM [inhibitor, single point]

Another view of some results above.
Row,SMILES,Potency
4,Cc1cc(OCC(=O)N(C)C)c2c(-c3ccccc3)cc(=O)oc2c1,active: 10.4 µM
5,Cc1cc(NC(=O)CN(C)CCOc2ccccc2)ccc1Br,inactive
6,CC(Cc1ccccc1)N/C=C1\CC(=O)NC1=O (stereo not given),"inconclusive: 2.08 µM [inhibitor, partial curve, poor fit]"
7,COc1ccc(/C=C/C(=O)Nn2cnnc2)cc1,"inconclusive: 6.57 µM [inhibitor, partial curve, poor fit]"
8,O=C(NCCN1CCCCC1)Nc1ccccc1Cl,inactive

2 records picked at random from the list so far, as already listed:
Row | SMILES | Potency
40 | CCN(CC)c1ccc(N=Cc2cc(Br)ccc2O)cc1 | inactive
38 | Cc1[nH]c(=O)c(C(=O)/C=C/c2ccccc2)c2c1CCCC2 | inconclusive: 2.62 µM [inhibitor, full curve]

Following part.

Row | SMILES | Potency
49 | O=C(c1ccc2c(c1)OCCO2)N1CCN(Cc2c(F)cccc2Cl)CC1 | inactive
50 | CCN1CCN(c2ccc(S(=O)(=O)N3CCOCC3)cc2NC(=O)c2ccc(Cl)s2)CC1 | inconclusive: 11.7 µM [inhibitor, partial curve]
51 | Cc1cc(C(=O)CSc2nnc(-c3ccco3)o2)c(C)n1-c1ccc2c(c1)OCCO2 | active: 11.7 µM
52 | COc1ccc(/C=N/Nc2nc(NCc3ccco3)nc(Nc3ccc(OC)cc3)n2)cc1 | inconclusive: 18.5 µM [inhibitor, single point]
53 | Cc1ccc(NC2CCCN(C(=O)CCN3CCOCC3)C2)cc1C (stereo not given) | inconclusive: 5.22 µM [inhibitor, partial curve, poor fit]
54 | O=C(NC1CCCCC1)c1ccc(S(=O)(=O)N2CCCC2)cc1 | inconclusive: 9.28 µM [inhibitor, single point]
55 | Cc1c(-c2ccccc2)[n+](=O)c2c(n1[O-])CCCC2 | inactive
56 | Cc1ccc(O)c(/C=N/NC(=O)C2=NNC(c3ccccc3)(c3ccccc3)C2)c1 | inconclusive: 10.4 µM [inhibitor, partial curve, poor fit]
57 | CNc1nc2c(Cl)cc(Cl)cc2s1 | inactive
58 | O=C(/C=N/NC(=O)c1ccccc1Br)c1ccccc1 | inactive
59 | CCOC(=O)C1CCN(C(=O)Nc2ccc3nc(-c4ccco4)c(-c4ccco4)nc3c2)CC1 | inconclusive: 0.415 µM [inhibitor, partial curve, poor fit]
60 | CCOC(=O)C1CCCN(CCc2ccccc2)C1 (stereo not given) | inconclusive: 0.738 µM [inhibitor, full curve, poor fit]
61 | COC(=O)N/N=C/C1=C[N+](=O)c2ccccc2[N+]1=O | inconclusive: 16.9 µM [inhibitor, single point]
62 | O=C(NCC1CCN(S(=O)(=O)c2ccccc2)CC1)Nc1ccc(F)cc1 | inconclusive: 7.38 µM [inhibitor, partial curve]
63 | C=CCn1c(CCc2cc(C(C)(C)C)c(O)c(C(C)(C)C)c2)n[nH]c1=S | inconclusive: 18.5 µM [inhibitor, partial curve, poor fit]
64 | Cc1ccccc1N(C(=O)CNC(=O)c1cccs1)C(C(=O)NC1CCCC1)c1ccncc1 (stereo not given) | inconclusive: 0.522 µM [inhibitor, full curve, poor fit]
65 | COc1ccccc1OC(=O)Nc1ccc(Cl)cc1 | inactive
66 | COc1cccc(C2/C(=C(\O)c3c(C)nc4c(C)cccn34)C(=O)C(=O)N2CCCN(C)C)c1 (stereo not given) | inconclusive: 13.1 µM [inhibitor, single point]
67 | COc1ccc2ccccc2c1CN(C)Cc1ccccc1 | inconclusive: 18.5 µM [inhibitor, single point]
68 | CCCOc1ccc(Cl)cc1CN1CCOCC1 | inconclusive: 11.7 µM [inhibitor, single point]
69 | COCc1c(C(=O)OCc2c(C)noc2C)oc2ccccc12 | inconclusive: 0.828 µM [inhibitor, single point]
70 | CCN1CCN(CCCNC(=O)c2ccc(NC(=O)C3=CSCCO3)cc2)CC1 | inactive
